Experimental data: PubChem BioAssay AID686938 (Drosophila RNAi Screening Center, 2013)
Purpose: 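Looking for CRAC channel components and the factors controlling them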 (primary screen). System: Drosophila S2R+ cells. Knock-down reagent: long dsRNA against Drosophila genes, about 0.25 µg dsRNA per well, roughly 10,000 cells. Duration: 5 days of knock-down before the calcium assay. Conditions: thapsigargin (SERCA pump blocker) to empty calcium stores; entry signal taken 4 min after adding it. Measured: 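Per-well fluo-4 fluorescence in two replicates, unnormalised, measured in resting cells and 4 min after store depletion by the SERCA blocker thapsigargin; ratio of the two present in few wells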. Scale: calcium entry signal: higher = stronger calcium signal after store depletion; entry to resting ratio: higher = more calcium entry relative to resting level; resting calcium signal: higher = higher resting calcium signal. Call rule: 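Called when the plate z-score of the entry-to-rest ratio, mean of duplicates, falls below −3; wells with low overall dye signal (Fmax z below −2) or more than five off-targets excluded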. Meaning of the calls: active = strongly reduced calcium entry; inactive = no strong reduction.
The screen tested about 23,000 reagents; this is a random part of those that have a named target and a result. Over the whole deposit, 75 (0.33%) were called active. 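Raw plate signals without normalisation; calls rest on plate z-scores that were not deposited; ratio present for only 364 wells.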 Reagents against one gene are numbered here. Not given: the dose of the treatment.

no.	gene	reagent no.	calcium entry signal, replicate 1 (fluorescence units)	calcium entry signal, replicate 2 (fluorescence units)	entry to resting ratio	resting calcium signal, replicate 1 (fluorescence units)	resting calcium signal, replicate 2 (fluorescence units)	call
1	Rubicon	1	3.37e7	3.78e7		1.72e7	1.83e7	inactive
2	CG33234	1	4.89e7	4.14e7		2.31e7	1.74e7	inactive
3	wech	1	4.28e7			2.23e7		inactive
4	CG5250	1	2.68e7	3.63e7		3.67e7	1.56e7	inactive
5	Pld3 (Phospholipase D family member 3)	1	3.14e7			1.60e7		inactive
6	CG33459	1	2.49e7	4.14e7		1.10e7	1.84e7	inactive
7	E(spl)mbeta-HLH (Enhancer of split mbeta, helix-loop-helix)	1	2.51e7	3.45e7		1.22e7	1.52e7	inactive
8	Mppe (Metallophosphoesterase)	1	2.82e7	3.27e7		1.19e7	1.48e7	inactive
9	CG13384	1	5.00e7			2.21e7		inactive
10	CG7183	1	4.23e7	4.10e7		1.88e7	1.78e7	inactive
11	RhoU	1	3.87e7	3.21e7		1.77e7	1.53e7	inactive
12	RhoU	2	3.73e7	3.61e7		1.79e7	1.75e7	inactive
13	RhoU	3	3.64e7	5.08e7		1.81e7	2.87e7	inactive
14	RhoU	4	2.50e7	3.65e7		1.32e7	1.97e7	inactive
15	RhoU	5	2.91e7	2.81e7		1.51e7	1.11e7	inactive
16	Cpr62Ba (Cuticular protein 62Ba)	1	3.47e7	3.98e7		1.82e7	1.92e7	inactive
17	CG7352	1	4.80e7	3.88e7		2.09e7	1.78e7	inactive
18	CG32225	1	3.14e7	4.99e7		1.65e7	2.17e7	inactive
19	Hydr2 (alpha/beta hydrolase2)	1	4.11e7			2.52e7		inactive
20	defl (deflated)	1	4.99e7	2.68e7		3.64e7	1.38e7	inactive
21	Met (Methoprene-tolerant)	1	3.83e7	4.96e7		2.00e7	2.50e7	inactive
22	Dredd (Death related ced-3/Nedd2-like caspase)	1	3.79e7	4.27e7		1.65e7	2.00e7	inactive
23	CG13033	1	4.72e7	6.55e7		2.18e7	2.55e7	inactive
24	spri (sprint)	1	3.22e7	5.16e7		1.92e7	3.10e7	inactive
25	spri (sprint)	2	4.07e7	4.83e7		1.84e7	2.36e7	inactive
26	spri (sprint)	3	3.64e7	5.68e7		1.71e7	2.59e7	inactive
27	spri (sprint)	4	3.67e7	3.22e7		1.64e7	1.50e7	inactive
28	spri (sprint)	5	2.61e7	2.83e7		1.29e7	1.34e7	inactive
29	spri (sprint)	6	3.10e7	3.31e7		1.54e7	1.62e7	inactive
30	spri (sprint)	7	3.61e7	3.44e7		1.95e7	1.48e7	inactive
31	CG3328	1	4.06e7			2.01e7		inactive
32	lbe (ladybird early)	1	4.77e7	3.64e7		5.07e7	1.59e7	inactive
33	CG8468	1	3.93e7	3.76e7		2.14e7	1.72e7	inactive
34	DJ-1alpha	1	3.49e7	3.37e7		1.90e7	1.56e7	inactive
35	Ser12 (Serine protease 12)	1	2.87e7	3.35e7		1.51e7	1.55e7	inactive
36	tomboy40	1	3.70e7			1.92e7		inactive
37	ATPsynbetaL (ATP synthase, beta subunit-like)	1	3.71e7	5.94e7		1.88e7	2.10e7	inactive
38	Aasdh (Aminoadipate-semialdehyde dehydrogenase)	1	3.25e7	4.29e7		1.62e7	1.75e7	inactive
39	Rab8	1	2.76e7	4.08e7		1.31e7	2.66e7	inactive
40	Catsup (Catecholamines up)	1	4.89e7	3.73e7		2.79e7	2.14e7	inactive
41	CG6330	1	3.27e7	3.77e7		1.54e7	1.95e7	inactive
42	CG9932	1	5.52e7	4.11e7		2.22e7	1.60e7	inactive
43	APC10 (Anaphase Promoting Complex subunit 10)	1	4.19e7	4.31e7		2.34e7	2.45e7	inactive
44	Fkbp39 (FK506-binding protein 39kD)	1	3.58e7	4.00e7		1.50e7	1.78e7	inactive
45	CG1941	1	3.61e7	4.67e7		1.73e7	1.87e7	inactive
46	CG8407	1	1.70e7	3.13e7		1.01e7	1.20e7	inactive
47	CG30281	1	2.85e7			1.48e7		inactive
48	y (yellow)	1	4.02e7	4.20e7	2.4	1.68e7	1.84e7	inactive
49	Drsl2 (Drosomycin-like 2)	1	3.22e7	3.27e7		1.69e7	1.52e7	inactive
50	Dref (DNA replication-related element factor)	1	3.28e7			1.94e7		inactive
51	CG31275	1	2.52e7	4.18e7		1.29e7	4.35e7	inactive
52	pav (pavarotti)	1	3.34e7	3.06e7		2.06e7	2.09e7	active
53	CG7432	1	4.69e7	4.51e7		5.18e7	1.82e7	inactive
54	fal (falten)	1	3.66e7	4.22e7		1.65e7	2.45e7	inactive
55	CG32095	1	4.74e7	3.53e7		2.73e7	1.69e7	inactive
56	ome (omega)	1	4.73e7	3.85e7		2.23e7	2.01e7	inactive
57	ome (omega)	2	5.22e7	7.46e7		2.40e7	2.89e7	inactive
58	ome (omega)	3	5.00e7	6.97e7		2.27e7	2.74e7	inactive

Part of the list above, set out differently.
gene,reagent no.,"calcium entry signal, replicate 1 (fluorescence units)","calcium entry signal, replicate 2 (fluorescence units)",entry to resting ratio,"resting calcium signal, replicate 1 (fluorescence units)","resting calcium signal, replicate 2 (fluorescence units)",call
defl (deflated),1,4.99e7,2.68e7,,3.64e7,1.38e7,inactive
Met (Methoprene-tolerant),1,3.83e7,4.96e7,,2.00e7,2.50e7,inactive
Dredd (Death related ced-3/Nedd2-like caspase),1,3.79e7,4.27e7,,1.65e7,2.00e7,inactive
CG13033,1,4.72e7,6.55e7,,2.18e7,2.55e7,inactive
spri (sprint),1,3.22e7,5.16e7,,1.92e7,3.10e7,inactive
spri (sprint),2,4.07e7,4.83e7,,1.84e7,2.36e7,inactive
spri (sprint),3,3.64e7,5.68e7,,1.71e7,2.59e7,inactive
spri (sprint),4,3.67e7,3.22e7,,1.64e7,1.50e7,inactive
spri (sprint),5,2.61e7,2.83e7,,1.29e7,1.34e7,inactive
